Test results taken from PMC10491584, “Structural convergence endows nuclear transport receptor Kap114p with a transcriptional repressor function toward TATA-binding protein” (Nature Communications, 2023).

Sequences of proteins named here, by UniProt entry; tags and fusion partners are left off. A change or cut given only in a name is not applied to a line headed by its entry.
UniProt P53067: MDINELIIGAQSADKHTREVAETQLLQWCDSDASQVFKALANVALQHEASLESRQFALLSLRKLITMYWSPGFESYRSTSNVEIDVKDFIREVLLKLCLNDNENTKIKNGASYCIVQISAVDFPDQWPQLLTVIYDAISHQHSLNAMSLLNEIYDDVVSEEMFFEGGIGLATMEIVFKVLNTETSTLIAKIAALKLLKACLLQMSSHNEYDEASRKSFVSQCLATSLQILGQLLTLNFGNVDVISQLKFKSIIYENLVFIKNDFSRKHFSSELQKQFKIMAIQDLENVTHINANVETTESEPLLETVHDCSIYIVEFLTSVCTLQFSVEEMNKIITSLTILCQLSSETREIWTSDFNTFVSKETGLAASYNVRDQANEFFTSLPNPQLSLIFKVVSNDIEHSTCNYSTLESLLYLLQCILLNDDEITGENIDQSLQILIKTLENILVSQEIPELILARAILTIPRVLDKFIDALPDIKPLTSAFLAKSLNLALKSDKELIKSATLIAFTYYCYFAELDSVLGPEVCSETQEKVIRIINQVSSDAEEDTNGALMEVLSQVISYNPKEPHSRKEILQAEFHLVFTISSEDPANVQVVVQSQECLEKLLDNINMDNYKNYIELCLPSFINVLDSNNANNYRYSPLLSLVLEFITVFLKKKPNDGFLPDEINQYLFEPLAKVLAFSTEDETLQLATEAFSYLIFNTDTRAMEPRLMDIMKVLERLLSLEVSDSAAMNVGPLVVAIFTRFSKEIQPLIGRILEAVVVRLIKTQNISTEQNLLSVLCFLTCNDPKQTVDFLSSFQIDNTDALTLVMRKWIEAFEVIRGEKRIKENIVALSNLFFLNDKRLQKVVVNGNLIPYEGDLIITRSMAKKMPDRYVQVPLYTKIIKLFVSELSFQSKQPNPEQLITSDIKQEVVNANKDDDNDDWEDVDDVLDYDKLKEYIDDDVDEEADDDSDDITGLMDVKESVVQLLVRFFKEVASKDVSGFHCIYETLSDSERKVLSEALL

Target: Kap114pΔ(848-875) (S. cerevisiae) (UniProt P53067)
Test: ITC; MicroCal iTC200, 25 °C, 20 mM HEPES pH 7.4, 150 mM NaCl; 25 or 50 μM wild type or mutant Kap114p in the cell, 250 or 500 μM wild-type or mutant yTBP^C in the syringe; triplicate; both purified

- binding: binds
B1: core domain of yeast TATA-box binding protein (yTBP^C), wild type (domain or fragment, S. cerevisiae, UniProt P13393 61-240, looked up)
chain: SGIVPTLQNIVATVTLGCRLDLKTVALHARNAEYNPKRFAAVIMRIREPKTTALIFASGKMVVTGAKSEDDSKLASRKYARIIQKIGFAAKFTDFKIQNIVGSCDVKFPIRLEGLAFSHGTFSSYEPELFPGLIYRMVKPKIVLLIFVSGKIVLTGAKQREEIYQAFEAIYPVLSEFRKM
notes: 61-240; His tag removed with PreScission protease; also called yTBP core domain; source: E. coli Rosetta, purified (Ni-NTA, HiTrap SP, Superdex 75); not shown: His6, N-terminal, cleaved

These are yes or no findings as the source states them, for the method shown. Binding calls can cover weak binding; strength is not graded here.
